This is an account of results in patent US20060088886A1, “Topiramate analogs” (priority 2004, published 2006).

The nature of the data set: Linearity / percent recovery of topiramate in agglutination immunoassay. An excerpt:
Linearity can be measured in order to illustrate an ability to provide results that are directly proportional to the concentration of an analyte in the test sample. As such, linearity typically refers to an overall system response, and the linearity of a system can be measured by testing levels of an analyte, which are known by formulation or known relative to each other. When the system results are plotted against these values, the degree to which the plotted curve conforms to a straight line is a measure of a system linearity.
Briefly, the protocol is used to assess linearity, and the samples with a matrix appropriate to the specimens are analyzed. The following samples are prepared: prepare 1 μg/ml topiramate sample by dilution of Cal B (2.0 μg/ml) with Cal A (0 μg/ml); prepare 3 μg/ml topiramate sample by dilution of Cal C (4.0 μg/ml) with Cal B (2.0 μg/ml); prepare 6 μg/ml topiramate sample by dilution of Cal D (8.0 μg/ml) with Cal C (4.0 μg/ml); prepare 11.9 μg/ml topiramate sample by dilution of Cal E (15.9.0 μg/ml) with Cal C (8.0 μg/ml); and prepare 23.5 μg/ml topiramate sample by dilution of Cal F (31.7 μg/ml) with Cal E (15.9 μg/ml).
The data is collected after a sample or a quality control material is assayed, and reported as the average test result, which is called recovery. The percent recovery is calculated based on the following equation: [formula]

In the case of `CC1(C)O[C@@H]2[C@@H](CO[C@@]3(COS(N)(=O)=O)OC(C)(C)O[C@@H]23)O1` [Topiramate, 2,3:4,5-di-O-isopropylidene-beta-D-fructopyranose sulfamate], the Recovered topiramate concentration reads like this: (Theoretical topiramate concentration 1 μg/ml) 0.94 µg/mL; (Theoretical topiramate concentration 2 μg/ml) 2.04 µg/mL; (Theoretical topiramate concentration 3 μg/ml) 3.06 µg/mL; (Theoretical topiramate concentration 4 μg/ml) 4.05 µg/mL; (Theoretical topiramate concentration 6 μg/ml) 6.03 µg/mL; (Theoretical topiramate concentration 8 μg/ml) 7.82 µg/mL. The Recovered topiramate concentration (Theoretical topiramate concentration 11.9 μg/ml) came to 11.62 µg/mL, the Recovered topiramate concentration (Theoretical topiramate concentration 15.9 μg/ml) worked out at 15.59 µg/mL, the Recovered topiramate concentration (Theoretical topiramate concentration 23.5 μg/ml) amounted to 23.14 µg/mL and the Recovered topiramate concentration (Theoretical topiramate concentration 31.7 μg/ml) turned out to be 30.51 µg/mL.
